Test results reported in PMC11550807.
No constants are given. Whether binding was seen depends on the method and setting. Binding seen in cells or lysates may run through a third protein. Binding can be weak; no strength is given.

Amino acid sequences for entries named in this document (tags omitted). A change or cut given only in a name is not applied to a line headed by its entry.
UniProt Q14315: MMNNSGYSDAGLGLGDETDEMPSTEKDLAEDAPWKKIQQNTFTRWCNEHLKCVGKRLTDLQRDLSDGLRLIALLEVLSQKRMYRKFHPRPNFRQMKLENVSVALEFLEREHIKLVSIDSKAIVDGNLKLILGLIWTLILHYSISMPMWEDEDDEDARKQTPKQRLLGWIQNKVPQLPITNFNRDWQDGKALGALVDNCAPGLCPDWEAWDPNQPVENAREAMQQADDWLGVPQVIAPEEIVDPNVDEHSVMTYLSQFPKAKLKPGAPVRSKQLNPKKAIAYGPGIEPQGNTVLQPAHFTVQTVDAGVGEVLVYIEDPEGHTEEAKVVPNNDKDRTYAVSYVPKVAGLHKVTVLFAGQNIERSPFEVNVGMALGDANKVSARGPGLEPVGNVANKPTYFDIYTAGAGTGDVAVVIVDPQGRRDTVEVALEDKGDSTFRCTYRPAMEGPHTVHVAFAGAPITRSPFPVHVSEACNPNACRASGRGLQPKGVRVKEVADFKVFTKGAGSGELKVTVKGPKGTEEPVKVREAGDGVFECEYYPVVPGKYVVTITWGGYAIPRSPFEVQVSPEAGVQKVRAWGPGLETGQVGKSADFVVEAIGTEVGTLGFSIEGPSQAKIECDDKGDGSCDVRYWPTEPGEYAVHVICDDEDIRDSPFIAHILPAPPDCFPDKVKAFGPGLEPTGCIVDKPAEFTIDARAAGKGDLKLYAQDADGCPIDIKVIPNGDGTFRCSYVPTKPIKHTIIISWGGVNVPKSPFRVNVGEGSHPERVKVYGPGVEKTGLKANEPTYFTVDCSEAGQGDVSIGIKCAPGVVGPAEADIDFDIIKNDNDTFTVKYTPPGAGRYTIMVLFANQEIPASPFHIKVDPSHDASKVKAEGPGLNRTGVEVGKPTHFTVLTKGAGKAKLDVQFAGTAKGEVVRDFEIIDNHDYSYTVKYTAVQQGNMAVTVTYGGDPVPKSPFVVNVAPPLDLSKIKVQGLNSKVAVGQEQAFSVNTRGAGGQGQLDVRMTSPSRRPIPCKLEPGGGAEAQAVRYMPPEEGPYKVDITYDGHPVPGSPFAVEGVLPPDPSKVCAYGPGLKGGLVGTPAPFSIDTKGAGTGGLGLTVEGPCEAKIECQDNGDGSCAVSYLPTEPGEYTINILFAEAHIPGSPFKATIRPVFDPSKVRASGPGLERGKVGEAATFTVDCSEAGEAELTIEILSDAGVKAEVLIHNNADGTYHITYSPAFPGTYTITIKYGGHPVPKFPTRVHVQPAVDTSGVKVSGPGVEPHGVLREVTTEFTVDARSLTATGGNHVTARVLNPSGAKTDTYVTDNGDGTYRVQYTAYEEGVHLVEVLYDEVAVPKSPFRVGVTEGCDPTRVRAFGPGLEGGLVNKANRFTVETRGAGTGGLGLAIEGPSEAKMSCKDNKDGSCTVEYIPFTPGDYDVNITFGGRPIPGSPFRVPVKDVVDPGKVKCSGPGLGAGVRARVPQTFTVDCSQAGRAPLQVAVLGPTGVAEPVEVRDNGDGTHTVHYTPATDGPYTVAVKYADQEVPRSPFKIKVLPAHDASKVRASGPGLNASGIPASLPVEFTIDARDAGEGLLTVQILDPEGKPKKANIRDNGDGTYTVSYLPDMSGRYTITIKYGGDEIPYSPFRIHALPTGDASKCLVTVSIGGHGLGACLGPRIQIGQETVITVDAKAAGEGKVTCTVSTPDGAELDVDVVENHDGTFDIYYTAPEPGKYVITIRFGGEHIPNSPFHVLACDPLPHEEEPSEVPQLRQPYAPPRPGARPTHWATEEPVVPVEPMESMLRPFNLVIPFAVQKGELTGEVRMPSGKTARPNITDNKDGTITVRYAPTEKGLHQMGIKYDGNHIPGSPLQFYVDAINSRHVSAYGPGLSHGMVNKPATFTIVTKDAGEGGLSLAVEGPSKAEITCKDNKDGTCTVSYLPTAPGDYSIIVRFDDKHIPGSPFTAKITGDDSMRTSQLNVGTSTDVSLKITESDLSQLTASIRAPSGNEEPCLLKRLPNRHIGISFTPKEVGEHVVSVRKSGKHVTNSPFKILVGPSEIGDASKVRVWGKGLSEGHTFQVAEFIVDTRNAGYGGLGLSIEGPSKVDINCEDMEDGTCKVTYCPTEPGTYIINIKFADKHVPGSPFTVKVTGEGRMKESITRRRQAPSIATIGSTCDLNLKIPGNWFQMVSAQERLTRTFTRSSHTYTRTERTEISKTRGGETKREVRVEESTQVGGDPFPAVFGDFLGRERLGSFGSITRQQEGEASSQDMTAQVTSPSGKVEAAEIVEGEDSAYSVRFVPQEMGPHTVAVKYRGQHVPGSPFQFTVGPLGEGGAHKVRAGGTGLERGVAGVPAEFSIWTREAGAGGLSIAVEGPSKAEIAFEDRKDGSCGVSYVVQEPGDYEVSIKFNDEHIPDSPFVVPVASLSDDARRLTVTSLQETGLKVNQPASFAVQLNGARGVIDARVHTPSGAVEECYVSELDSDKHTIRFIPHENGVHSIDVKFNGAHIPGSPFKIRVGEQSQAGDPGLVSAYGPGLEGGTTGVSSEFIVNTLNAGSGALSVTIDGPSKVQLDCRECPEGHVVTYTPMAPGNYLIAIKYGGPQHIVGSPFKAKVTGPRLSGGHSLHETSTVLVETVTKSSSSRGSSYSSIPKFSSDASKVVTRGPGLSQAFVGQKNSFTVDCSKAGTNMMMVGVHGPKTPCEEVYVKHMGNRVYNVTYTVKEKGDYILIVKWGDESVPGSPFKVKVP

Target: 3xFLAG-hFLNc d18-21-His-EEF, dephosphorylated by PP1c (human) (UniProt Q14315)
Assay: pull-down; 3xFLAG-hFLNc d18-21 immunopurified from HEK293 cells on anti-FLAG beads, treated on beads with or without recombinant PP1c, then incubated with C2 myotube lysate; Western blot of eluates for FILIP1, n = 6; only the target purified

binding: binds
B1: filamin-A-interacting protein 1 (FILIP1), endogenous in C2 myotubes (protein, UniProt Q9CS72 1-1214)
chain: MRSRNQGGESSSNGHVSCPKPSIISSDGGKGPSEDAKKNKANRKGEDDVMASGTVKRHLKPSGESEKKTKKPLELSKEDLIQLLSIMEGELQAREDVIHMLKTEKTKPEVLEAHYGSAEPEKVLRVLHRDAILAQEKSIGEDVYEKPISELDRLEEKQKETYRRMLEQLLLAEKCHRRTVYELENEKHKHTDYMNKSDDFTNLLEQERERLKKLLEQEKAYQARKEKENAKRLNKLRDELVKLKSFALMLVDERQMHIEQLGLQSQKVQDLTQKLREEEEKLKAITYKSKEDRQKLLKLEVDFEHKASRFSQEHEEMNAKLANQESHNRQLRLKLVGLSQRIEELEETNKSLQKAEEELQELRDKIAKGECGNSSLMAEVESLRKRVLEMEGKDEEITKTEAQCRELKKKLQEEEHHSKELRLEVEKLQKRMSELEKLEEAFSRSKSECTQLHLNLEKEKNLTKDLLNELEVVKSRVKELECSESRLEKVELSLKDDLTKLKSFTVMLVDERKNMMEKIKQEERKVDGLNKNFKVEQGKVMDVTEKLIEESKKLLKLKSEMEEKVYSLTKERDELMGKLRSEEERSCELSCSVDLLKKRLDGIEEVEREINRGRLCKGSEFTCPEDNKIRELTLEIERLKKRLQQLEVVEGDLMKTEDEYDQLEQKFRTEQDKANFLSQQLEEIKHQMAKNKAIEKGEAVSQEAELRHRFRMEEAKSRDLQAEVQALKEKIHELMNKEDQLSQLQVDYSVLQQRFMEEETKNKNMGREVLNLTKELELSKRYSRALRPSGNGRRMVDVPVASTGVQTEAVCGDAAEEETPAVFIRKSFQEENHIMSNLRQVGLKKPMERSSVLDRYPPAANELTMRKSWIPWMRKRENGPSAPQEKGPRPNQGTGHPGELVLAPKQGQPLHIRVTPDHENSTATLEITSPTSEEFFSSTTVIPTLGNQKPRITIIPSPNVMSQKPKSADPTLGPERAMSPVTITTISREKSPEGGRGAFADRPASPIQIMTVSTSAAPPEIAVSPDSQEVPMGRTILKVTPEKQTVPTPMRKYNANANIITTEDNKIHIHLGSQFKRSPGPAAAEGVSPVITVRPVNVTAEKEVSTGTVLRSPRNHLSSRPGANKVTSTITITPVTTSSTRGTQSVSGQDGSSQRPTPTRIPMSKGMKAGKPVVAAPGAGNLTKFQPRAETQSMKIELKKSAASSTASLGGGKG
